{
  "source": "PubChem BioAssay AID190",
  "about": "(DTP/NCI, 2004)",
  "test_system": "AKR/Lw mice, AKR lymphoma ip, median survival T/C",
  "test": "NCI In Vivo Anticancer Drug Screen. Data for tumor model Lymphoma AKR (Transplanted) (intraperitoneal) in AKR/Lw mice",
  "details": "T/C endpoint: median survival time, higher T/C = longer survival",
  "description": "The antitumor activity of compounds was measured in mice bearing transplantable tumors. Survival or tumor size were measured and the results are expressed as the measurement made in the treated group (T) divided by the measurement made in the vehicle treated control group (C). The tumor model used in this assay is Lymphoma AKR (Transplanted) (intraperitoneal) in AKR/Lw mice",
  "key": {"[1]": {"details": "dose: 10.0 mg/kg/injection, schedule: Q01DX001 (ip), vehicle: saline"}, "[2]": {"details": "dose: 20.0 mg/kg/injection, schedule: Q01DX001 (ip), vehicle: saline"}, "[3]": {"details": "dose: 24.0 mg/kg/injection, schedule: Q04DX003 (ip), vehicle: water"}, "[4]": {"details": "dose: 25.0 mg/kg/injection, schedule: Q01DX001 (ip), vehicle: saline"}, "[5]": {"details": "dose: 40.0 mg/kg/injection, schedule: Q01DX001 (ip), vehicle: saline"}},
  "note": "The list is a part of this screen's results and no random one: it gathers tests that were run many times, whatever their T/C, doses with no T/C, and many T/C values between a quarter and a half above the control. Other doses and runs of a compound stand elsewhere. T/C gives the treated animals as a percentage of the vehicle group. Some entries give survivors of the animals treated and no T/C: the source holds a T/C of zero for them, seemingly a mark for toxic or unscored doses. Some survivor counts are full or nearly so, which does not show that the dose was tolerated: the source hardly ever lists a survival T/C far under the control, and the zero likely stands for such cases as well. Survivors were counted at the toxicity check, usually on the fifth day, unless a day is given; later deaths do not show. Schedules are NCI's codes, taken here to give the interval after Q, in days (D) or hours (H), and the number of doses after X. Counts like (3×) stand for listed records that agree. Some entries hold several experiments; the values are given in rising order. For survival time, this PubChem deposit counts one and a half times the control or more as active, and values a quarter to a half above the control carry no call in these data; other NCI protocols may use other cut-offs. Some T/C values are followed by the survivors on the day toxicity was checked, most often the fifth; where none is given, no animal had died by that day.",
  "data": [
    {"smiles": "Nc1ncn(C2OC(CO)C(O)C2O)c(=O)n1", "note": "(stereo not given)", "values": [
      {"measurement": "T/C", "setting": "dose: 6.0 mg/kg/injection, schedule: Q04DX003 (ip), vehicle: saline, evaluated on day 45", "value": "102, 125, 137 [9 of 10 alive], 171 % of control"},
      {"measurement": "T/C", "setting": "dose: 6.0 mg/kg/injection, schedule: Q04DX003 (ip), vehicle: saline, evaluated on day 60", "value": "102 [8 of 10 alive], 125 [9 of 10 alive], 130, 140, 144 [9 of 10 alive], 147 % of control"},
      {"measurement": "survivor count", "setting": "dose: 6.0 mg/kg/injection, schedule: Q04DX003 (ip), vehicle: saline", "value": "10 of 10"},
      {"measurement": "survivor count", "setting": "dose: 8.0 mg/kg/injection, schedule: Q01DX009 (ip), vehicle: saline", "value": "10 of 10 (2×)"},
      {"measurement": "T/C", "setting": "[1]", "value": "103, 125, 128, 130, 141 % of control"},
      {"measurement": "survivor count", "setting": "[1]", "value": "9 of 10"},
      {"measurement": "survivor count", "setting": "dose: 10.0 mg/kg/injection, schedule: Q04DX004 (ip), vehicle: saline", "value": "10 of 10"},
      {"measurement": "survivor count", "setting": "dose: 12.0 mg/kg/injection, schedule: Q01DX009 (ip), vehicle: water", "value": "10 of 10"},
      {"measurement": "T/C", "setting": "dose: 12.0 mg/kg/injection, schedule: Q04DX003 (ip), vehicle: saline, evaluated on day 45", "value": "128, 150, 195 % of control"},
      {"measurement": "T/C", "setting": "dose: 12.0 mg/kg/injection, schedule: Q04DX003 (ip), vehicle: saline, evaluated on day 60", "value": "94, 109, 122, 162 % of control [9 of 10 alive]"},
      {"measurement": "survivor count", "setting": "dose: 12.0 mg/kg/injection, schedule: Q04DX003 (ip), vehicle: saline", "value": "6 of 10, 8 of 10, 10 of 10 (2×)"},
      {"measurement": "T/C", "setting": "dose: 12.0 mg/kg/injection, schedule: Q04DX003 (ip), vehicle: water", "value": "127 % of control"},
      {"measurement": "T/C", "setting": "dose: 12.5 mg/kg/injection, schedule: Q01DX001 (ip), vehicle: saline", "value": "131 % of control"},
      {"measurement": "T/C", "setting": "dose: 15.0 mg/kg/injection, schedule: Q01DX001 (ip), vehicle: saline", "value": "100, 140, 145, 158 % of control"},
      {"measurement": "survivor count", "setting": "dose: 15.0 mg/kg/injection, schedule: Q04DX004 (ip), vehicle: saline", "value": "9 of 10"},
      {"measurement": "survivor count", "setting": "dose: 15.0 mg/kg/injection, schedule: Q04DX008 (ip), vehicle: saline", "value": "10 of 10"},
      {"measurement": "T/C", "setting": "[2]", "value": "115 [8 of 10 alive], 125, 135 % of control"},
      {"measurement": "survivor count", "setting": "[2]", "value": "7 of 10"},
      {"measurement": "T/C", "setting": "dose: 24.0 mg/kg/injection, schedule: Q01DX001 (ip), vehicle: saline", "value": "131 % of control"},
      {"measurement": "T/C", "setting": "dose: 24.0 mg/kg/injection, schedule: Q04DX003 (ip), vehicle: saline, evaluated on day 45", "value": "128 % of control"},
      {"measurement": "T/C", "setting": "dose: 24.0 mg/kg/injection, schedule: Q04DX003 (ip), vehicle: saline, evaluated on day 60", "value": "91 % of control"},
      {"measurement": "survivor count", "setting": "dose: 24.0 mg/kg/injection, schedule: Q04DX003 (ip), vehicle: saline", "value": "9 of 10 and 10 of 10 (2×)"},
      {"measurement": "T/C", "setting": "[3]", "value": "143 % of control"},
      {"measurement": "survivor count", "setting": "[3]", "value": "10 of 10"},
      {"measurement": "T/C", "setting": "[4]", "value": "101, 105 [9 of 10 alive], 128, 133, 156 % of control"},
      {"measurement": "survivor count", "setting": "[4]", "value": "6 of 10"},
      {"measurement": "T/C", "setting": "dose: 30.0 mg/kg/injection, schedule: Q01DX001 (ip), vehicle: saline", "value": "135 % of control [8 of 10 alive]"},
      {"measurement": "survivor count", "setting": "dose: 35.0 mg/kg/injection, schedule: Q01DX001 (ip), vehicle: saline", "value": "8 of 10"},
      {"measurement": "T/C", "setting": "[5]", "value": "141 % of control [9 of 10 alive]"},
      {"measurement": "survivor count", "setting": "[5]", "value": "1 of 10"},
      {"measurement": "survivor count", "setting": "dose: 45.0 mg/kg/injection, schedule: Q01DX001 (ip), vehicle: saline", "value": "6 of 10"},
      {"measurement": "survivor count", "setting": "dose: 48.0 mg/kg/injection, schedule: Q04DX003 (ip), vehicle: water", "value": "6 of 6"},
      {"measurement": "survivor count", "setting": "dose: 50.0 mg/kg/injection, schedule: Q01DX001 (ip), vehicle: saline", "value": "2 of 10, 4 of 10, 6 of 10, 9 of 10"},
      {"measurement": "survivor count", "setting": "dose: 100.0 mg/kg/injection, schedule: Q01DX001 (ip), vehicle: saline", "value": "1 of 10"},
      {"measurement": "T/C", "setting": "dose: 120.0 micrograms/kg/injection, schedule: Q01DX009 (ip), vehicle: saline", "value": "130 % of control"}
    ]}
  ]
}
